Experimental data: PubChem BioAssay AID1259405 (NCATS, 2018)
Test: 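Mouse-designed siRNAs used to find CHO productivity engineering targets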 (primary screen). Cell system: Chinese hamster CHO-K1 ovary cells with stable secreted eGFP expression. Reagent: single siRNA against mouse genes, 0.8 pmol siRNA per well (2 µl of 400 nM stock). Timing: 3 days. Read-out: 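Percent of the per-plate non-targeting control median for intracellular GFP per well by laser scanning cytometry and for cell viability by ATP luminescence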. Scale: GFP, % of control: higher = more GFP per well, higher productivity; viability (ATP), % of control: higher = more viable cells (more ATP). Active means: 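Called active when intracellular GFP, relative to negative control, is at or above 120%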.
Here is one part, drawn at random, of about 50,000 reagents tested. Over the whole deposit, about 4,000 (8%) got an active call. 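Mouse siRNA library applied to hamster cells; one well for each siRNA.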 Entries without a mark were called inactive. The numbers tell different reagents against one gene apart.

Against Glis1 (GeneID 230587) #1, the values are GFP, % of control 144 (active); viability (ATP), % of control 113.
Against Glis1 (GeneID 230587) #2 the deposit lists GFP, % of control 0.358; viability (ATP), % of control 169.
Depletion of Sbf1 (GeneID 77980) #1 came out at: GFP, % of control 103; viability (ATP), % of control 69.6.
After knock-down of Sbf1 (GeneID 77980) #2, the record shows GFP, % of control 66; viability (ATP), % of control 76.
Knock-down of Sbf1 (GeneID 77980) #3 came out at: GFP, % of control 68.8; viability (ATP), % of control 61.2.
Against Shox2 (GeneID 20429) #1, the values are GFP, % of control 77.3; viability (ATP), % of control 85.6.
Against Shox2 (GeneID 20429) #2, the values are GFP, % of control 70.9; viability (ATP), % of control 61.1.
For Shox2 (GeneID 20429) #3 the deposit lists GFP, % of control 48; viability (ATP), % of control 47.2.
After knock-down of Prrx2 (GeneID 20204) #1, the record shows GFP, % of control 111; viability (ATP), % of control 104.
Prrx2 (GeneID 20204) #2 gave GFP, % of control 99.3; viability (ATP), % of control 76.4.
Silencing of Hadh (GeneID 15107) #1 gave: GFP, % of control 75; viability (ATP), % of control 79.4.
Silencing of Hadh (GeneID 15107) #2 gave: GFP, % of control 92.8; viability (ATP), % of control 49.9.
With knock-down of Hadh (GeneID 15107) #3 the results were GFP, % of control 108; viability (ATP), % of control 78.8.
Depletion of Asphd2 (GeneID 72898) #1 came out at: GFP, % of control 76.9; viability (ATP), % of control 111.
After knock-down of Asphd2 (GeneID 72898) #2, the record shows GFP, % of control 67.6; viability (ATP), % of control 83.9.
After knock-down of Nsun6 (GeneID 74455) #1 the results were GFP, % of control 68.1; viability (ATP), % of control 70.2.
Silencing of Nsun6 (GeneID 74455) #2 gave: GFP, % of control 87.5; viability (ATP), % of control 84.2.
Against Nsun6 (GeneID 74455) #3 the deposit lists GFP, % of control 60.3; viability (ATP), % of control 66.7.
Against Man2b2 (GeneID 17160) #1, the entry reads GFP, % of control 75.4; viability (ATP), % of control 63.5.
After knock-down of Man2b2 (GeneID 17160) #2, the record shows GFP, % of control 98.6; viability (ATP), % of control 82.4.
Knock-down of Man2b2 (GeneID 17160) #3 came out at: GFP, % of control 75.2; viability (ATP), % of control 66.6.
With knock-down of A830018L16Rik (GeneID 320492) #1 the results were GFP, % of control 18.9; viability (ATP), % of control 27.8.
Knock-down of A830018L16Rik (GeneID 320492) #2 resulted in: GFP, % of control 56.9; viability (ATP), % of control 67.9.
Knock-down of A830018L16Rik (GeneID 320492) #3 gave: GFP, % of control 63; viability (ATP), % of control 88.6.

Look-ups from the list:
Under “viability (ATP), % of control”, Sbf1 (GeneID 77980) #1 reads 69.6
Result of Glis1 (GeneID 230587) #2 in “viability (ATP), % of control”: 169
Under “GFP, % of control”, Glis1 (GeneID 230587) #1 has 144 (active)
Value for Asphd2 (GeneID 72898) #1 under “viability (ATP), % of control”: 111
Under “GFP, % of control”, A830018L16Rik (GeneID 320492) #3 shows 63

Next entries follow:
Depletion of Vmn1r14 (GeneID 113864) #1 came out at: GFP, % of control 34.2; viability (ATP), % of control 42.6.
After knock-down of Vmn1r14 (GeneID 113864) #2, the record shows GFP, % of control 108; viability (ATP), % of control 69.6.
Against Vmn1r14 (GeneID 113864) #3 the deposit lists GFP, % of control 70.2; viability (ATP), % of control 85.9.
Or5w14 (GeneID 258101) #1 scored GFP, % of control 82.9; viability (ATP), % of control 75.5.
Or5w14 (GeneID 258101) #2 gave GFP, % of control 81.4; viability (ATP), % of control 63.3.
Silencing of Or5w14 (GeneID 258101) #3 came out at: GFP, % of control 59.1; viability (ATP), % of control 26.9.
Against Rps6kl1 (GeneID 238323) #1, the values are GFP, % of control 112; viability (ATP), % of control 67.
Depletion of Rps6kl1 (GeneID 238323) #2 came out at: GFP, % of control 49.5; viability (ATP), % of control 24.3.
Silencing of Rps6kl1 (GeneID 238323) #3 gave: GFP, % of control 118; viability (ATP), % of control 88.2.
Sh2d1a (GeneID 20400) #1 showed GFP, % of control 68.8; viability (ATP), % of control 36.2.
Knock-down of Sh2d1a (GeneID 20400) #2 came out at: GFP, % of control 79.6; viability (ATP), % of control 69.3.
For Sh2d1a (GeneID 20400) #3, the values are GFP, % of control 107; viability (ATP), % of control 104.
Klf10 (GeneID 21847) #1 showed GFP, % of control 42.6; viability (ATP), % of control 37.1.
Silencing of Klf10 (GeneID 21847) #2 resulted in: GFP, % of control 96.2; viability (ATP), % of control 99.2.
After knock-down of Klf10 (GeneID 21847) #3 the results were GFP, % of control 73.4; viability (ATP), % of control 75.9.
After knock-down of Akt3 (GeneID 23797), the screen gave GFP, % of control 61.9; viability (ATP), % of control 85.1.
